Source: publication PMC10952301 (Angewandte Chemie (International Ed. in English), 2023)

Experiment: general procedure: Fmoc solid-phase peptide synthesis; Tentagel resin, pre-loaded with lysine
Conditions: whole synthesis, scale 50 µmol; for isolated yield: on 25 µmol (half of crude)

Substance | isolated yield | isolated mass
N(τ)-α-ADPr-His: TF[H]ADPrGAGLVVPVDK | 35% | 16.2 mg
N(π)-α-ADPr-His: TF[H]ADPrGAGLVVPVDK | 28% | 12.9 mg
N(τ)-β-ADPr-His: TF[H]ADPrGAGLVVPVDK | 28% | 13.0 mg
